According to PubChem BioAssay AID504467 (National Center for Advancing Translational Sciences (NCATS), 2011):
In all, about 330,000 compounds went through this assay and about 7,700 (2.3%) were called active. Inconclusive results, whose numbers are uncertain, are shown with a selection of clear calls. The call rests on the fitted dose curve; in most records, active means well fitted inhibition curve with a large enough effect; inconclusive means small, poorly fitted or top-dose-only effect, or effect the other way; inactive means flat fitted curve, though single readings scatter. Where the call is inconclusive, the potency comes from a doubtful curve fit.
On the % scale 0 is the no-effect control and ±100 the full control effect; potency means the concentration at half of the fitted maximal effect.

Experiment: qHTS screen for small molecules that inhibit ELG1-dependent DNA repair in human embryonic kidney (HEK293T) cells expressing luciferase-tagged ELG1; further: nearly all actives have a fitted effect of over 55% in size
Settings: HEK293T ELG1-luciferase reporter, luminescence, 16 h, DNA damage induced by 5-fluorouridine; activity change, negative = inhibition: at 46.1 µM (top of the series)
Outline: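 Step one: seed 2,000 cells per well. Step two: pin-transfer compound or DMSO alongside 5-fluorouridine. Step three: incubate 16 hr, 37 °C, 5% CO2. Step four: add ONE-Glo, wait 30 min, read luminescence.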
In the case of `COc1ccc(/C(N)=N/OC(=O)CCCc2ccccc2)cc1OC`, the Potency is reported as inconclusive: 29.1 µM [activator, partial curve, poor fit].
In the case of `COc1ccc(-c2cc(C(=O)N3CCCC3)c3ccccc3n2)cc1`, the Potency is reported as inconclusive: 7.3 µM [activator, partial curve].
For `Cc1ccsc1C(=O)OCC(=O)Nc1cccc(F)c1`, the Potency was inconclusive: 18.3 µM [activator, partial curve].
For `COc1ccc2[nH]cc(CCNC(=O)Cc3ccc(Cl)cc3)c2c1`, the Potency was inconclusive: 8.2 µM [inhibitor, partial curve, poor fit].
With `COc1ccc(NC(=O)CSc2ccc(C)cc2)cc1` the Potency was inconclusive: 16.4 µM [activator, partial curve].
In the case of `CCOC(=O)C1CCN(CC(=O)Nc2ccc(S(=O)(=O)N3CCC(C)CC3)cc2)CC1`, the Potency is reported as inconclusive: 10.3 µM [inhibitor, partial curve].
With `COc1ccc(N2C(N)=C(C#N)C(c3cccnc3)C3=C2CC(C)(C)CC3=O)cc1` (stereo not given) the Potency was inconclusive: 0.0164 µM [activator, full curve, poor fit].
For `CC(C)c1cc(C(=O)N/N=C/c2cccnc2)cs1`, the Potency was inconclusive: 20.6 µM [activator, partial curve].
For `COc1cccc(F)c1C(=O)NC(=O)Nc1ccc2nc(C)oc2c1`, the Potency was inconclusive: 1.3 µM [inhibitor, partial curve, poor fit].
In the case of `C/C(=C\c1ccccc1)C(=O)Nc1nccs1`, the Potency is reported as inconclusive: 5.8 µM [activator, full curve].
In the case of `C[C@@]12C(=O)N(c3ccccc3)C(=O)N1[C@@H]1c3ccccc3OC[C@@H]1[C@H]2c1ccccc1`, the Potency is reported as inconclusive: 23.1 µM [inhibitor, single point].
With `COc1cccc(/C=C2\CCC(C3CCCC3)C2=O)c1OC` (stereo not given) the Potency was inconclusive: 14.6 µM [activator, partial curve].
In the case of `CCOC(=O)C1=C(COC(=O)/C=C/c2ccc(O)c(OC)c2)NC(=O)NC1C` (stereo not given), the Potency is reported as inconclusive: 29.1 µM [inhibitor, single point].
With `Cc1cc(C(=O)NC2CC(C)(C)Cc3c2cnn3-c2ccccc2C)c(C)o1` (stereo not given) the Potency was inconclusive: 23.1 µM [activator, single point].
For `O=C(Nc1ccc2c(c1)Cc1ccccc1-2)c1cccnc1`, the Potency was inconclusive: 2.91 µM [activator, partial curve, poor fit].
In the case of `COc1ccc(C(=O)c2ccccc2)c(O)c1`, the Potency is reported as inconclusive: 16.4 µM [inhibitor, partial curve, poor fit].
For `O=C(Nc1nc2ccccc2s1)C1CCCN1S(=O)(=O)c1ccc(Cl)cc1` (stereo not given), the Potency was inconclusive: 29.1 µM [inhibitor, single point].
With `COc1ccc(-c2nc(Cn3c(SCc4ccc(C)cc4)nc4ccncc43)c(C)o2)cc1OC` the Potency was active: 13 µM.
In the case of `CN(C)c1nc(-c2ccc([N+](=O)[O-])cc2)cs1`, the Potency is reported as inconclusive: 18.4 µM [activator, partial curve].
For `O=C(CN1C(=O)NC2(CCCCC2)C1=O)Nc1ccccc1N1CCCC1`, the “activity change, negative = inhibition” value was inactive: 14.1%.
In the case of `CCN1CCN(Cc2ccc(NC(=O)Nc3ccccc3Cl)cc2)CC1`, the Potency is reported as inconclusive: 4.11 µM [activator, full curve].
In the case of `CC(=O)c1ccc(NC(=O)c2onc(C)c2Cl)cc1`, the Potency is reported as inconclusive: 10.3 µM [activator, partial curve].
In the case of `CSc1sc(C(=O)NCC2CC2)cc1S(=O)(=O)C(C)C`, the “activity change, negative = inhibition” value is reported as inactive: 1.44%.
In the case of `O=C(O)c1ccc2c(c1)C(=O)N(c1cccc(S(=O)(=O)Nc3cccc(C(F)(F)F)c3)c1)C2=O`, the “activity change, negative = inhibition” value is reported as inactive: 10.7%.
With `Cc1ccc(S(=O)(=O)NCCS(=O)(=O)N2CCN(c3ccc(F)cc3)CC2)cc1` the “activity change, negative = inhibition” value was inactive: 0.159%.
In the case of `Cc1cc(C)cc(-n2ccn(CC(=O)NCCc3ccccc3)c(=O)c2=O)c1`, the “activity change, negative = inhibition” value is reported as inactive: 17%.
With `O=C(NN=C1CCCCCC1)c1ccc2c(c1)OCO2` the Potency was inconclusive: 16.4 µM [activator, partial curve].
For `O=C1C(Cl)=C(Nc2ccc(F)cc2)C(=O)N1CCc1ccccc1`, the Potency was inconclusive: 16.4 µM [activator, single point].
With `O=C1CC(N2CCOCC2)C(=O)N1Cc1ccc(N2CCCC2=O)cc1` (stereo not given) the “activity change, negative = inhibition” value was inactive: 8.77%.
In the case of `O=C(NC1CCCC1)c1cc2c(=O)n3ccccc3nc2s1`, the Potency is reported as inconclusive: 14.6 µM [activator, partial curve].
With `COCc1nn2c(N)c(-c3ccccc3)cnc2c1-c1ccccc1` the “activity change, negative = inhibition” value was inactive: -7.37%.
With `O=C(NCC1CCCO1)c1ccc2c(c1)N(Cc1ccccc1)C(=O)CS2=O` (stereo not given) the Potency was inconclusive: 29.1 µM [activator, single point].
In the case of `O=C(c1[nH]ncc1-c1ccc(Cl)cc1)C1CO1` (stereo not given), the Potency is reported as inconclusive: 25.9 µM [inhibitor, partial curve, poor fit].
In the case of `CCC(C)NC(=O)COC(=O)c1ccc(Cl)cc1O` (stereo not given), the “activity change, negative = inhibition” value is reported as inactive: 2%.
In the case of `Cc1ccc(C(=O)Oc2oc(-c3ccccc3)nc2C=Nc2ccc(N(C)C)cc2)cc1`, the Potency is reported as inconclusive: 4.61 µM [activator, partial curve].
With `CN=c1scc(-c2ccc(F)cc2)n1/N=C/c1ccc(O)c(O)c1` the Potency was inconclusive: 4.11 µM [activator, partial curve].
For `Cc1cc2nc(SCC(=O)O)nc(C)c2cc1C`, the Potency was inconclusive: 20.6 µM [activator, partial curve, poor fit].
In the case of `N#Cc1ccccc1OCC(=O)NCc1ccccc1CN1CCCC1`, the Potency is reported as inconclusive: 16.4 µM [activator, partial curve, poor fit].
For `CCCOC(=O)c1ccc(OCC(O)Cn2c(C)nc3ccccc32)cc1` (stereo not given), the Potency was active: 1.46 µM.
In the case of `COc1cccc(/C=C2/Sc3ccc(C(=O)NCCN4CCCCCC4)cc3NC2=O)c1`, the Potency is reported as inconclusive: 20.6 µM [activator, single point].
In the case of `Cc1ccc(S(=O)(=O)N2CCN(S(=O)(=O)c3ccccc3)C2c2ccc(N(C)C)cc2)cc1` (stereo not given), the Potency is reported as inconclusive: 18.4 µM [inhibitor, partial curve, poor fit].
For `COc1cccc(/C=N/Nc2ncnc3scc(-c4ccccc4)c23)c1OC`, the Potency was active: 14.6 µM.
For `O=C(Nc1cccc(S(=O)(=O)N2CCOCC2)c1)c1ccc2c(=O)n3c(nc2c1)CCCCC3`, the Potency was active: 11.6 µM.
With `Cc1ccc(Cn2nnc3c(=O)n(CC(=O)NCc4ccco4)cnc32)cc1` the Potency was inconclusive: 20.6 µM [inhibitor, partial curve, poor fit].
For `O=C(NC1CCCC1)c1ccc(CS(=O)(=O)Cc2ccccc2F)o1`, the Potency was inconclusive: 29.1 µM [activator, single point].
For `O=C(NC(=O)c1ccc(F)cc1F)Nc1ccc(Cl)cc1`, the Potency was inconclusive: 5.17 µM [activator, partial curve].
In the case of `CCOc1ccc(NC(=O)CSc2nc3c(c(=O)n2C)SC(C)C3)cc1` (stereo not given), the Potency is reported as inconclusive: 16.4 µM [inhibitor, partial curve, poor fit].
In the case of `COc1ccc(C2CC2/C(C)=N/OC(=O)C2CC2)cc1` (stereo not given), the “activity change, negative = inhibition” value is reported as inactive: 3.39%.
For `S=c1[nH]nc(Cn2nnc3ccccc32)n1-c1ccccc1`, the “activity change, negative = inhibition” value was inactive: 4.86%.
For `CCOC(=O)c1cc(CC)sc1NC(=O)c1cc([N+](=O)[O-])ccc1N1CCOCC1`, the “activity change, negative = inhibition” value was inactive: -4.43%.
With `Cc1ccc(C(=O)NCC(=O)Nc2ccc3c(c2)CCC3)cc1` the Potency was inconclusive: 20.6 µM [activator, partial curve].
With `Cc1ccc(NC(=O)c2c3c(nc4ccccc24)CCC3)cc1S(=O)(=O)N(C)C` the “activity change, negative = inhibition” value was inactive: 10.9%.
With `Cc1ccc(S(=O)(=O)N2CCCCC2)cc1NC(=O)CNc1ccc(C(F)(F)F)cc1` the Potency was active: 3.66 µM.
With `COC(=O)c1sccc1NC(=O)Cc1ccc(OC)cc1` the Potency was inconclusive: 18.4 µM [activator, partial curve, poor fit].
With `COc1ccccc1N1CCN(C(=O)c2cnn3cccnc23)CC1` the “activity change, negative = inhibition” value was inactive: 14%.
For `CCOc1ccc(S(=O)(=O)N2CCN(C(=O)COc3ccc(Br)cc3)CC2)cc1`, the Potency was inconclusive: 11.6 µM [inhibitor, single point].
In the case of `CCC(C)C(=O)Nc1nnc(-c2cccs2)s1` (stereo not given), the Potency is reported as inconclusive: 13 µM [activator, partial curve].
With `Cc1ccc(-c2cc(C(=O)NCc3ccco3)c3ccccc3n2)s1` the “activity change, negative = inhibition” value was inactive: -12.6%.
For `Cc1ncc(N=Nc2ccccc2Cl)c(-c2ccccc2)n1`, the “activity change, negative = inhibition” value was inactive: 19.4%.
With `Cc1cccc(NC(=S)NN(Cc2ccccc2)c2ccccc2)c1C` the “activity change, negative = inhibition” value was inactive: -26.7%.
With `COc1ccc(NCc2nnc(-c3ccccc3)o2)cc1` the Potency was inconclusive: 14.6 µM [activator, partial curve, poor fit].
In the case of `N#CC1=C(N)Oc2cc(O)ccc2C1C1CCCCC1` (stereo not given), the Potency is reported as inconclusive: 9.2 µM [inhibitor, partial curve].
In the case of `Cc1sc2ncnc(N3CCN(CCOc4ccc(Cl)cc4)CC3)c2c1C`, the Potency is reported as inconclusive: 2.59 µM [inhibitor, partial curve].
In the case of `CCN(CC)CCn1c(=S)[nH]c2cc(C(=O)NCc3ccccc3Cl)ccc2c1=O`, the “activity change, negative = inhibition” value is reported as inactive: 16.7%.
For `O=C(CCc1ccc(CCC(=O)c2cccs2)s1)c1cccs1`, the Potency was inconclusive: 11.2 µM [activator, single point].
In the case of `CCOC(=O)c1ccc(OS(=O)(=O)c2ccccc2)c(OC)c1`, the Potency is reported as inconclusive: 6.51 µM [activator, partial curve].
In the case of `CCCNC(=O)c1cc2cc([N+](=O)[O-])ccc2s1`, the Potency is reported as inconclusive: 14.6 µM [inhibitor, single point].
With `CC(=O)c1sc(Nc2nc3cc4c(cc3s2)OCO4)nc1C` the Potency was inconclusive: 3.66 µM [activator, full curve].
For `Cc1sc2ncnc(NCCN3CCOCC3)c2c1C`, the Potency was active: 18.4 µM.
In the case of `CC1(C)S/C(=N/N=C/c2cccs2)NC1=O`, the Potency is reported as inconclusive: 14.6 µM [activator, partial curve, poor fit].
